# PubChem BioAssay AID743454 – Peter MacCallum Cancer Centre | 2014
# Screen: 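Genes whose loss kills vorinostat-resistant colon cancer cells under vorinostat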 (primary screen)
# Cell system: human HCT116-VR colon cancer cells, selected for vorinostat resistance
# Reagent: siRNA pool against human genes, 40 nM siRNA pool
# Duration: vorinostat for 24 h, read-out about 72 h after transfection
# Conditions: vorinostat at 2.5 µM final
# Detection: 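Two measures, CellTiter-Fluor viability and luminescent caspase 3/7 activity, each as fold change against same-plate mock wells, mean of duplicates, then screen-wide robust z-score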
# Direction: viability robust z-score: higher = more viable cells than screen typical; caspase robust z-score: higher = more caspase 3/7 activity than screen typical
# Active means: 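a knock-down is a hit when classed RV1 or RV2 for lowered viability, or CA1 or CA2 for caspase activation; those lethal without drug were dropped; hits were retested singly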
# Shown is an unselected part of about 18,000 reagents. 450 of them (2.5%) count as active. 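Single biological run; no consistent viability z cut-off exists, so the class columns, not z-scores, define the calls.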
gene,viability hit class,caspase hit class,viability robust z-score,caspase robust z-score,activity call
EME2,no change,no change,0.05,-1.04,inactive
AMZ2,no change,no change,0.73,-0.6,inactive
PGA5,no change,no change,0.76,-0.88,inactive
MAP9,no change,no change,2.43,0.2,inactive
RNF121,no change,CA1 (caspase activation),-2.1,6.13,active
CMBL,no change,no change,-0.39,-0.3,inactive
PRKCG,no change,no change,0.72,0.02,inactive
FIBCD1,no change,no change,-2.2,1.07,inactive
UQCRC2,no change,no change,0.7,-1,inactive
ELP2,no change,no change,-1.94,-0.22,inactive
SECTM1,no change,no change,-0.04,1.4,inactive
ARHGEF28,no change,no change,0.82,-0.39,inactive
HJV,no change,no change,-0.57,1,inactive
RNF149,no change,no change,0.38,0.63,inactive
PSMD11,no change,no change,-3.92,1.55,inactive
FAM114A2,no change,no change,-0.31,-0.13,inactive
SURF4,no change,no change,0.51,2.36,inactive
PGC,no change,no change,-0.84,-0.34,inactive
BTBD2,no change,no change,0.02,3.61,inactive
MVK,no change,no change,1,-0.94,inactive
CNOT9,no change,no change,-0.18,-0.36,inactive
C16orf54,RV2 (reduced viability),no change,-3.13,3.58,active
HBEGF,no change,no change,-0.2,5.01,inactive
MRPS12,no change,no change,-0.75,0.31,inactive
ARID2,no change,no change,1.44,-0.32,inactive
PCMTD2,no change,no change,0.58,-0.52,inactive
ZNG1C,no change,no change,1.38,-0.26,inactive
GMPPB,no change,no change,1.04,-0.07,inactive
TOR4A,no change,no change,0.67,2.37,inactive
DEFB118,no change,no change,0.18,-0.59,inactive
ALAD,no change,no change,-0.52,-0.16,inactive
MACROH2A2,no change,no change,-0.96,-0.4,inactive
VN1R4,no change,no change,-0.74,-0.42,inactive
DDX52,no change,no change,-0.22,-1.02,inactive
SLC71A1,no change,no change,1.1,0.32,inactive
ERG,no change,no change,1.38,1.17,inactive
PCDH15,no change,no change,1.4,0.56,inactive
DPYS,no change,no change,0.94,-0.76,inactive
MOCS3,no change,no change,-1.17,0.32,inactive
DHX29,no change,no change,0.42,0.45,inactive
PRDM16,no change,no change,1.18,-0.71,inactive
ZNF322P1,no change,no change,-1.08,2.95,inactive
EEF1D,no change,no change,-0.1,1.13,inactive
SCAI,no change,no change,0.03,-0.72,inactive
ZNF185,no change,no change,0,4.56,inactive
KRT6B,no change,no change,1.36,0.34,inactive
ANXA6,no change,no change,-0.6,-0.35,inactive
GPRC5D,no change,no change,-0.52,-0.56,inactive
POMGNT2,no change,no change,-0.35,-0.45,inactive
TMEM98,no change,no change,0.6,-0.61,inactive
LEP,no change,no change,1.31,-0.74,inactive
HPDL,no change,no change,0.09,-0.7,inactive
METAP1D,no change,no change,-0.23,-1,inactive
BHLHE40,no change,no change,0.25,0.02,inactive
FBXO46,no change,no change,0.66,-0.24,inactive

In a second layout: 5 of the entries above
gene | viability hit class | caspase hit class | viability robust z-score | caspase robust z-score | activity call
BTBD2 | no change | no change | 0.02 | 3.61 | inactive
MVK | no change | no change | 1 | -0.94 | inactive
CNOT9 | no change | no change | -0.18 | -0.36 | inactive
C16orf54 | RV2 (reduced viability) | no change | -3.13 | 3.58 | active
HBEGF | no change | no change | -0.2 | 5.01 | inactive
